Laboratory results as given in US20210261642A1, “SOLUBILITY OF GLP-1 PEPTIDE” (Novo Nordisk A/S, priority 2017, published 2021).
This continues a long series; more values of the same kind are listed elsewhere.

Assay: Assay (I): Determination of Solubility (96-well plate, pH 3.0-11.0, organic solvent 0-70% w/w, UV absorption at 280 nm)
Format: physicochemical
Conditions: Method 1 (evaporation)
Procedure: Assay (I): Determination of Solubility
96-Well Plate Preparation
96-well plates containing target peptide in a solid form were prepared in one of two ways:
Method 1 (evaporation): Addition of 100 μl stock solution of said peptide at a concentration of 4-6 mg/ml to each well of a 96-well half area plate (150 μl well size). Subsequently the solvent was evaporated by applying a vacuum until the solvent was completely removed.
Method 2 (precipitation): Addition of a certain volume of a stock solution of said peptide containing to each well of a 96-well half area plate followed by the addition of a certain volume of concentrated phosphoric acid to obtain a pH of 4.6 followed by addition of a certain volume of ethanol resulting in a final ethanol concentration of 20% v/v. Subsequently the plate was stored at 4° C. for 1 h and then centrifuged at 4,000 rpm for 20 min. Finally the supernatant was removed. The concentration of the stock solution was chosen in a way that the final amount of peptide after supernatant removal was >0.4 mg per well.
In both cases the stock solution was prepared by adding de-ionized water to a certain amount of powder of said peptide followed by a stepwise addition of small amounts of a concentrated sodium hydroxide solution until said peptide was completely in solution.
To determine solubility of a target peptide at different pH and organic solvent concentrations, two different buffer systems were used in independent experiments to cover the whole range from pH 3.0 to pH 11.0. Buffer system 1 covers pH 3.0-7.5 and buffer system 2 covers pH 7.5-11.0. For each buffer system 96 different solvent compositions were premixed in the following way: • 1. A low pH buffer (adjusted to either pH 3.0 or pH 7.5) and a high pH buffer (adjusted to either pH 7.5 or pH 11.0) were mixed at 8 different ratios to obtain values between pH 3.0 and pH 7.5 or pH 7.5 and pH 11.0, respectively. The total volume after mixing was 300 μl. • 2. 12 different amounts of organic solvent were then added to these buffers to obtain organic solvent (e.g. ethanol) concentrations between 0 and 70% w/w. • 3. Water was then added to obtain a total weight of 1.0 g of solvent in each well.
After preparing the 96 different solvent systems, 100 μl of each system was transferred to the 96-well plate containing the solid form of the target peptide (prepared as described in the section “96-well plate preparation”). The plate was then stored at a given temperature (between 5° C. and 70° C.) for a given time on a rotating shaker set to 400 rpm. At regular time intervals the plate was centrifuged (4,000 rpm for 10 min) and a 10 μl sample was taken from each well. The samples were then analysed by UV absorption at 280 nm for peptide quantification. Peptide concentration results are given as UV absorption at 280 nm of the sample subtracted UV absorption at 280 nm of a well comprising 10 μl water.
The buffers used were as follows: • Buffer system 1 (for the pH range from pH 3.0-7.5)
• Buffer system 2 (for the pH ranae from pH 7.5-11.0)
Solubility of liraglutide was determined using Assay (I) described herein. Liraglutide was prepared using Method 1 (evaporation) or Method 2 (precipitation) as described in subsection “96-well plate preparation”.

CCCCCCCCCCCCCCCC(=O)N[C@@H](CCC(=O)NCCCC[C@H](NC(=O)[C@H](C)NC(=O)[C@H](C)NC(=O)[C@H](CCC(N)=O)NC(=O)CNC(=O)[C@H](CCC(=O)O)NC(=O)[C@H](CC(C)C)NC(=O)[C@H](Cc1ccc(O)cc1)NC(=O)[C@H](CO)NC(=O)[C@H](CO)NC(=O)[C@@H](NC(=O)[C@H](CC(=O)O)NC(=O)[C@H](CO)NC(=O)[C@@H](NC(=O)[C@H](Cc1ccccc1)NC(=O)[C@@H](NC(=O)CNC(=O)[C@H](CCC(=O)O)NC(=O)[C@H](C)NC(=O)[C@@H](N)Cc1cnc[nH]1)[C@@H](C)O)[C@@H](C)O)C(C)C)C(=O)N[C@@H](CCC(=O)O)C(=O)N[C@@H](Cc1ccccc1)C(=O)N[C@H](C(=O)N[C@@H](C)C(=O)N[C@@H](Cc1c[nH]c2ccccc12)C(=O)N[C@@H](CC(C)C)C(=O)N[C@H](C(=O)N[C@@H](CCCNC(=N)N)C(=O)NCC(=O)N[C@@H](CCCNC(=N)N)C(=O)NCC(=O)O)C(C)C)[C@@H](C)CC)C(=O)O [liraglutide, Arg34,Lys26-(N-epsilon-(gamma-L-glutamyl(N-alfa-hexadecanoyl)))-GLP-1(7-37)]
0.2 mg/mL: Peptide concentration after 5 min (DMF 38.2% w/w, pH 3.1, RT) | Peptide concentration after 180 min (DMF 38.2% w/w, pH 3.1, RT) | Peptide concentration after 5 min (DMF 38.2% w/w, pH 4.8, RT) | Peptide concentration after 5 min (DMF 44.5% w/w, pH 3.1, RT) | Peptide concentration after 180 min (DMF 44.5% w/w, pH 3.1, RT) | Peptide concentration after 5 min (DMF 44.5% w/w, pH 4.8, RT) | Peptide concentration after 180 min (DMF 44.5% w/w, pH 4.8, RT) | Peptide concentration after 24 h (DMF 44.5% w/w, pH 4.8, RT) | Peptide concentration after 5 min (DMF 50.9% w/w, pH 3.1, RT) | Peptide concentration after 180 min (DMF 50.9% w/w, pH 3.1, RT) | Peptide concentration after 5 min (DMF 50.9% w/w, pH 4.8, RT) | Peptide concentration after 180 min (DMF 50.9% w/w, pH 4.8, RT) | Peptide concentration after 24 h (DMF 50.9% w/w, pH 4.8, RT)
2.9 mg/mL: Peptide concentration after 5 min (DMF 38.2% w/w, pH 10.5, RT)
3.0 mg/mL: Peptide concentration after 5 min (DMF 44.5% w/w, pH 10.5, RT)
0.5 mg/mL: Peptide concentration after 5 min (DMF 38.2% w/w, pH 5.8, RT) | Peptide concentration after 5 min (DMF 38.2% w/w, pH 6.3, RT) | Peptide concentration after 5 min (DMF 38.2% w/w, pH 6.9, RT) | Peptide concentration after 24 h (DMF 44.5% w/w, pH 5.8, RT)
>4.0 mg/mL: Peptide concentration after 24 h (DMF 31.8% w/w, pH 7.2, RT) | Peptide concentration after 180 min (DMF 31.8% w/w, pH 7.5, RT) | Peptide concentration after 180 min (DMF 31.8% w/w, pH 8.5, RT) | Peptide concentration after 180 min (DMF 31.8% w/w, pH 9.0, RT) | Peptide concentration after 180 min (DMF 31.8% w/w, pH 9.5, RT) | Peptide concentration after 180 min (DMF 31.8% w/w, pH 10.0, RT) | Peptide concentration after 180 min (DMF 31.8% w/w, pH 10.5, RT) | Peptide concentration after 180 min (DMF 38.2% w/w, pH 8.0, RT) | Peptide concentration after 180 min (DMF 38.2% w/w, pH 8.5, RT) | Peptide concentration after 180 min (DMF 38.2% w/w, pH 9.0, RT) | Peptide concentration after 5 min (DMF 38.2% w/w, pH 9.5, RT) | Peptide concentration after 180 min (DMF 38.2% w/w, pH 9.5, RT) | Peptide concentration after 180 min (DMF 38.2% w/w, pH 10.0, RT) | Peptide concentration after 180 min (DMF 38.2% w/w, pH 10.5, RT) | Peptide concentration after 180 min (DMF 38.2% w/w, pH 11.0, RT) | Peptide concentration after 180 min (DMF 44.5% w/w, pH 7.5, RT) | Peptide concentration after 180 min (DMF 44.5% w/w, pH 8.0, RT) | Peptide concentration after 180 min (DMF 44.5% w/w, pH 8.5, RT) | Peptide concentration after 180 min (DMF 44.5% w/w, pH 9.5, RT) | Peptide concentration after 5 min (DMF 44.5% w/w, pH 10.0, RT) | Peptide concentration after 180 min (DMF 44.5% w/w, pH 10.0, RT) | Peptide concentration after 180 min (DMF 44.5% w/w, pH 10.5, RT)
1.1 mg/mL: Peptide concentration after 24 h (DMF 38.2% w/w, pH 6.7, RT) | Peptide concentration after 5 min (DMF 38.2% w/w, pH 9.0, RT)
0.8 mg/mL: Peptide concentration after 5 min (DMF 31.8% w/w, pH 7.2, RT) | Peptide concentration after 180 min (DMF 38.2% w/w, pH 6.7, RT) | Peptide concentration after 24 h (DMF 38.2% w/w, pH 6.9, RT)
3.3 mg/mL: Peptide concentration after 5 min (DMF 31.8% w/w, pH 10.0, RT) | Peptide concentration after 5 min (DMF 44.5% w/w, pH 9.5, RT)
2.2 mg/mL: Peptide concentration after 24 h (DMF 31.8% w/w, pH 6.9, RT)
2.6 mg/mL: Peptide concentration after 5 min (DMF 31.8% w/w, pH 7.5, RT)
1.6 mg/mL: Peptide concentration after 24 h (DMF 38.2% w/w, pH 7.2, RT) | Peptide concentration after 24 h (DMF 44.5% w/w, pH 7.2, RT)
1.8 mg/mL: Peptide concentration after 5 min (DMF 31.8% w/w, pH 11.0, RT) | Peptide concentration after 5 min (DMF 44.5% w/w, pH 7.5, RT) | Peptide concentration after 5 min (DMF 44.5% w/w, pH 8.5, RT)
3.2 mg/mL: Peptide concentration after 5 min (DMF 38.2% w/w, pH 10.0, RT)
3.6 mg/mL: Peptide concentration after 180 min (DMF 31.8% w/w, pH 8.0, RT) | Peptide concentration after 5 min (DMF 44.5% w/w, pH 9.0, RT)
3.1 mg/mL: Peptide concentration after 5 min (DMF 44.5% w/w, pH 11.0, RT)
2.5 mg/mL: Peptide concentration after 5 min (DMF 31.8% w/w, pH 9.5, RT)
0.7 mg/mL: Peptide concentration after 5 min (DMF 31.8% w/w, pH 9.0, RT) | Peptide concentration after 24 h (DMF 38.2% w/w, pH 5.8, RT) | Peptide concentration after 5 min (DMF 38.2% w/w, pH 6.7, RT) | Peptide concentration after 180 min (DMF 38.2% w/w, pH 7.2, RT) | Peptide concentration after 5 min (DMF 38.2% w/w, pH 8.0, RT) | Peptide concentration after 24 h (DMF 44.5% w/w, pH 6.9, RT)
1.7 mg/mL: Peptide concentration after 180 min (DMF 31.8% w/w, pH 7.2, RT)
0.9 mg/mL: Peptide concentration after 5 min (DMF 31.8% w/w, pH 8.0, RT)
1.5 mg/mL: Peptide concentration after 5 min (DMF 31.8% w/w, pH 8.5, RT) | Peptide concentration after 24 h (DMF 38.2% w/w, pH 6.3, RT) | Peptide concentration after 5 min (DMF 38.2% w/w, pH 7.5, RT) | Peptide concentration after 5 min (DMF 38.2% w/w, pH 8.5, RT)
0.4 mg/mL: Peptide concentration after 24 h (DMF 38.2% w/w, pH 3.1, RT) | Peptide concentration after 5 min (DMF 44.5% w/w, pH 5.8, RT) | Peptide concentration after 180 min (DMF 44.5% w/w, pH 5.8, RT) | Peptide concentration after 5 min (DMF 44.5% w/w, pH 6.7, RT) | Peptide concentration after 180 min (DMF 44.5% w/w, pH 6.7, RT) | Peptide concentration after 5 min (DMF 44.5% w/w, pH 6.9, RT) | Peptide concentration after 5 min (DMF 44.5% w/w, pH 7.2, RT)
0.6 mg/mL: Peptide concentration after 180 min (DMF 38.2% w/w, pH 5.8, RT) | Peptide concentration after 180 min (DMF 38.2% w/w, pH 6.3, RT) | Peptide concentration after 180 min (DMF 38.2% w/w, pH 6.9, RT) | Peptide concentration after 5 min (DMF 38.2% w/w, pH 7.2, RT) | Peptide concentration after 5 min (DMF 38.2% w/w, pH 11.0, RT) | Peptide concentration after 24 h (DMF 44.5% w/w, pH 6.3, RT) | Peptide concentration after 24 h (DMF 44.5% w/w, pH 6.7, RT) | Peptide concentration after 180 min (DMF 44.5% w/w, pH 6.9, RT) | Peptide concentration after 180 min (DMF 44.5% w/w, pH 7.2, RT)
3.8 mg/mL: Peptide concentration after 180 min (DMF 44.5% w/w, pH 9.0, RT) | Peptide concentration after 180 min (DMF 44.5% w/w, pH 11.0, RT)
2.3 mg/mL: Peptide concentration after 5 min (DMF 31.8% w/w, pH 10.5, RT)
1.0 mg/mL: Peptide concentration after 5 min (DMF 44.5% w/w, pH 8.0, RT)
0.3 mg/mL: Peptide concentration after 180 min (DMF 38.2% w/w, pH 4.8, RT) | Peptide concentration after 24 h (DMF 38.2% w/w, pH 4.8, RT) | Peptide concentration after 24 h (DMF 44.5% w/w, pH 3.1, RT) | Peptide concentration after 5 min (DMF 44.5% w/w, pH 6.3, RT) | Peptide concentration after 180 min (DMF 44.5% w/w, pH 6.3, RT) | Peptide concentration after 24 h (DMF 50.9% w/w, pH 3.1, RT)
3.7 mg/mL: Peptide concentration after 180 min (DMF 31.8% w/w, pH 11.0, RT)
